Measured values: US20080020964A1, “Test System for the Discovery of Substances for the Promotion of Neuraxonal Growth” (priority 2003, published 2008)
Some entries share one result that the patent states for a list of compounds.

System: PC12 cells
Experiment: Neurite growth in PC12 cells transiently transfected with Smn or hnRNP-R and -Q
Format: cell-based, rat
Conditions: transient overexpression, 1 μg plasmid DNA, differentiation with 50 ng/ml NGF for three days
Procedure: Rat pheochromocytoma cells (PC12) were cultivated in DMEM (Invitrogen, Carlsbad, Calif., USA)+10% horse serum+5% fetal calf serum+antibiotics. Before the transfection, the cells were plated out in a high density in 24-well culture dishes and transfected with 1 μg plasmid DNA (Lipofectamine 2000; Invitrogen, Carlsbad, Calif., USA). For this purpose, expression plasmids were used, into which wildtype forms marked with epitope tags (HA tag of FLAG tag) or mutated versions of Smn, hnRNP-R or hnRNP-Q have been cloned. On the day after the transfection, the cells were plated out in 35 mm culture dishes on glass plates coated with poly-DL-or nithine in a density of 1,000 cells/cm^2. As a differentiation medium, DMEM+2% horse serum and 1% fetal calf serum+50 ng/ml NGF+antibiotics were used. After three days, the cells were fixed and stained. The PC12 cells were fixed with 4% paraformaldehyde (PFA) in buffered common salt solution (PBS). […] After washing again with TBS-T, the cells were embedded in Mowiol and evaluated at the fluorescence microscope or the confocal microscope as mentioned above.

Molecule | increase of neurite growth compared to the controls
hnRNP-R: heterogeneous nuclear ribonucleic protein R, epitope-tagged wildtype form overexpressed from an expression plasmid (protein, UniProt O43390 2-633, looked up, epitope tag) Heterogeneous nuclear …: ANQVNGNAVQLKEEEEPMDTSSVTHTEHYKTLIEAGLPQKVAERLDEIFQTGLVAYVDLDERAIDALREFNEEGALSVLQQFKESDLSHVQNKSAFLCGVMKTYRQREKQGSKVQESTKGPDEAKIKALLERTGYTLDVTTGQRKYGGPPPDSVYSGVQPGIGTEVFVGKIPRDLYEDELVPLFEKAGPIWDLRLMMDPLSGQNRGYAFITFCGKEAAQEAVKLCDSYEIRPGKHLGVCISVANNRLFVGSIPKNKTKENILEEFSKVTEGLVDVILYHQPDDKKKNRGFCFLEYEDHKSAAQARRRLMSGKVKVWGNVVTVEWADPVEEPDPEVMAKVKVLFVRNLATTVTEEILEKSFSEFGKLERVKKLKDYAFVHFEDRGAAVKAMDEMNGKEIEGEEIEIVLAKPPDKKRKERQAARQASRSTAYEDYYYHPPPRMPPPIRGRGRGGGRGGYGYPPDYYGYEDYYDDYYGYDYHDYRGGYEDPYYGYDDGYAVRGRGGGRGGRGAPPPPRGRGAPPPRGRAGYSQRGAPLGPPRGSRGGRGGPAQQQRGRGSRGSRGNRGGNVGGKRKADGYNQPDSKRRQTNNQQNWGSQPIAQQPLQQGGDYSGNYGYNNDNQEFYQDTYGQQWK | 25-30%
hnRNP-Q: heterogeneous nuclear ribonucleic protein Q, epitope-tagged wildtype form overexpressed from an expression plasmid (protein, UniProt O60506 2-623, looked up, epitope tag) Heterogeneous nuclear …: ATEHVNGNGTEEPMDTTSAVIHSENFQTLLDAGLPQKVAEKLDEIYVAGLVAHSDLDERAIEALKEFNEDGALAVLQQFKDSDLSHVQNKSAFLCGVMKTYRQREKQGTKVADSSKGPDEAKIKALLERTGYTLDVTTGQRKYGGPPPDSVYSGQQPSVGTEIFVGKIPRDLFEDELVPLFEKAGPIWDLRLMMDPLTGLNRGYAFVTFCTKEAAQEAVKLYNNHEIRSGKHIGVCISVANNRLFVGSIPKSKTKEQILEEFSKVTEGLTDVILYHQPDDKKKNRGFCFLEYEDHKTAAQARRRLMSGKVKVWGNVGTVEWADPIEDPDPEVMAKVKVLFVRNLANTVTEEILEKAFSQFGKLERVKKLKDYAFIHFDERDGAVKAMEEMNGKDLEGENIEIVFAKPPDQKRKERKAQRQAAKNQMYDDYYYYGPPHMPPPTRGRGRGGRGGYGYPPDYYGYEDYYDYYGYDYHNYRGGYEDPYYGYEDFQVGARGRGGRGARGAAPSRGRGAAPPRGRAGYSQRGGPGSARGVRGARGGAQQQRGRGVRGARGGRGGNVGGKRKADGYNQPDSKRRQTNNQNWGSQPIAQQPLQGGDHSGNYGYKSENQEFYQDTFGQQWK | 25-30%
